For orientation: pIC50 means the IC50 on a negative log10 scale, so that one unit is a factor of ten.

By UniProt entry, the sequences of proteins in these tests, tags left out. Chains listed by the source or under a name are the forms on record and can include a tag or linker. Residues count along the entry.
UniProt O43318, 1-303 with tags or gaps limits assumed: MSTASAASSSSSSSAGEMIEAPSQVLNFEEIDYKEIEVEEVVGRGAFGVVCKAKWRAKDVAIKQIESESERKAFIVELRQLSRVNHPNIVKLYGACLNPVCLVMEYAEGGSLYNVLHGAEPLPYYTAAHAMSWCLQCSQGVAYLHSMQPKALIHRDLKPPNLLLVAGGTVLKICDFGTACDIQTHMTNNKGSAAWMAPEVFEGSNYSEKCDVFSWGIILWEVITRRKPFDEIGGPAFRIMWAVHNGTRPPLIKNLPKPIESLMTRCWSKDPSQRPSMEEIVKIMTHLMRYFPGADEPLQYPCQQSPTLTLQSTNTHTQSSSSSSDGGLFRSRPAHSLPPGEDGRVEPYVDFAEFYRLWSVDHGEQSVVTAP

This test concerns the target TAK1-TAB1 fusion protein (Homo sapiens, UniProt O43318). Description: TAK1 biochemical assay (AlphaScreen, GST-MAP2K7 substrate). The conditions noted are these: read-out: mean TAK1 IC50 (Col. A). A general note: In Alpha technology, singlet oxygen from a donor bead excites a nearby acceptor bead.

pIC50: −log10 of the molar value. Structures were worked out from names or drawings and are uncertain.

For `CC(=O)N1CCC(n2cc(-c3cnc(N)c4oc(-c5ccc6[nH]c(C(N)=O)cc6c5)cc34)cn2)CC1`, the pIC50 is 6.00 to 7.00. Take `CC(C)(C)[Si](C)(C)OC1CCC(n2cc(-c3cnc(N)c4oc(-c5cccc6cnccc56)cc34)cn2)CC1` (stereo not drawn): the pIC50 was less than 5.00. In the case of `Nc1ncc(-c2cnn(C3CCNCC3)c2)c2cc(-c3cccc4c3Oc3ccccc3S4)oc12` it was 6.00 to 7.00.

(Values after patent publication US8378104B2 (OSI Pharmaceuticals, LLC, priority 2010, dated 2013).)
